The list shows a part of the results, in another mix than the full data. Calls of active or inactive are those of the source.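 The calls were made as follows: active = activation above the mean of all tested compounds plus 3 SD, computed per campaign excluding outliers beyond control limits (cut at about 13% in these data); inactive = the rest.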
target: Kallikrein-7 (Homo sapiens) (UniProt P49862); assay: activation of human kallikrein-7 proenzyme – biochemical, fluorescence intensity, primary screen (AID 652039); conditions: purified proKLK7, EDANS-DABCYL substrate fluorescence; at 7 µM; active compounds read high; 100% is mature enzyme control, 0% vehicle

The chains behind the UniProt entries cited, without tags or fusion partners. Where a name states a change or a piece, a line headed by the entry shows the natural chain unless it says otherwise.
UniProt P49862: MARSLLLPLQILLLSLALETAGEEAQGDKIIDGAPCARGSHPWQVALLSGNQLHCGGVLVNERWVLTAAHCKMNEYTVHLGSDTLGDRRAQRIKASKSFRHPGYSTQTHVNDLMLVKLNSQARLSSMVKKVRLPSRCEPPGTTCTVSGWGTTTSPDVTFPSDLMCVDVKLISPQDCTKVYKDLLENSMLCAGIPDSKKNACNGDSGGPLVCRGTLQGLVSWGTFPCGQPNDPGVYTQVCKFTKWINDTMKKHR

SMILES | activation
Oc1ccc2ccccc2c1CNc1cnc2ccccc2c1 | active: 46.8%
COC(=O)COc1ccc2cc(-c3ccc(OC)cc3)c(=O)oc2c1 | active: 28.2%

Reference: PubChem BioAssay AID652039 (The Scripps Research Institute Molecular Screening Center, 2013)
